No constants are given. Whether binding was seen depends on the method and setting. Some results given as binding are weak or reduced against the parent protein; the word gives no strength. Values belong to the molecule of their own block, whether it stands above or below them.
Key:
[1] = target: Alix (endogenous, human) (human (endogenous in MCF-7)) (UniProt Q8WUM4); assay: condition: only with DTT (16.7 mM in the sample buffer, reducing SDS-PAGE); reducing SDS-PAGE with Western blot; crude exosomes with 16.7 mM DTT in the Laemmli sample buffer, 95 °C 4 min; anti-Alix blot
[2] = target: Alix (endogenous, rat) (rat (endogenous in Z310)) (UniProt Q9QZA2); assay: as above
[3] = target: Alix (endogenous, rat) (rat (endogenous in Z310)) (UniProt Q9QZA2); assay: non-reducing SDS-PAGE with Western blot; crude exosomes (100,000 x g) from culture media, isolated with 0, 0.5 or 1.0 mM DTT; no reducing agent in the sample buffer; anti-Alix or anti-FLAG blot
[4] = target: T1, Alix (endogenous, human) (human (endogenous in MCF-7)), Q8WUM4; assay: as above; settings: remark: other sources report otherwise
T1 chain: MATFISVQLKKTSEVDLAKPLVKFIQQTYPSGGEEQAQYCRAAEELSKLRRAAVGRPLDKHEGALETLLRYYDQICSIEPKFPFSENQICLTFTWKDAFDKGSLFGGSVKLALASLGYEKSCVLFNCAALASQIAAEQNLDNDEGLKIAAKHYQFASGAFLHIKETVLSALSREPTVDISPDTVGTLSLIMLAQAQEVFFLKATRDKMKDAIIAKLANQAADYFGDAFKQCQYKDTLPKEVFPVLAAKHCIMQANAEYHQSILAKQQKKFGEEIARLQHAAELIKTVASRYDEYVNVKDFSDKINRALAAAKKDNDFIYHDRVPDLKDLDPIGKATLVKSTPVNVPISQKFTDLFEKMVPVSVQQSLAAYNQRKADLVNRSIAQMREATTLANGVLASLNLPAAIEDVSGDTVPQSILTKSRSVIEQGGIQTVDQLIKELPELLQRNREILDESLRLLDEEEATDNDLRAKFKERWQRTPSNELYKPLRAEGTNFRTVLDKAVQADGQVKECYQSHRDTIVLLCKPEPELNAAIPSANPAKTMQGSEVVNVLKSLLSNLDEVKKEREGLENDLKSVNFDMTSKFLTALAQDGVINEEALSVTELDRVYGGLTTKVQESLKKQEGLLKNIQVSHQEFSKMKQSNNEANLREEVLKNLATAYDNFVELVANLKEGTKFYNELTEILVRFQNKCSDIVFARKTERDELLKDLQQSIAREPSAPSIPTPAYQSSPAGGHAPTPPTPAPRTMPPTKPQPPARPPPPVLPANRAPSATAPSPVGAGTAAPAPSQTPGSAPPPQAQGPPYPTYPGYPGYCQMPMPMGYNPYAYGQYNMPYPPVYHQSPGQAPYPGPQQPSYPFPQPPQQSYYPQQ

binding [1]: no binding
Molecule: Alix (endogenous, human) (from UniProt Q8WUM4 1-868)

binding [2]: no binding
binding [3]: binds
B1: Alix (endogenous, rat) (protein, UniProt Q9QZA2 1-873)
chain: MASFIWVQLKKTSEVDLAKPLVKFIQQTYPSGGEEQAQYCRAAEELSKLRRSALGRPLDKHEGALETLLRYYDQICSIEPKFPFSENQICLTFTWKDAFDKGSLFGGSVKLALASLGYEKSCVLFNCAALASQIAAEQNLDNDEGLKTAAKQYQFASGAFLHIKDTVLSALSREPTVDISPDTVGTLSLIMLAQAQEVFFLKATRDKMKDAIIAKLANQAADYFGDAFKQCQYKDALPKYFYFQEVFPTLAAKQCIMQANAEYHQSILAKQQKKFGEEIARLQHAAELIKNVASRYDEYVNVKDFSDKINRALAAAKKDNDFIYHDRVPDLKDLDPIGKATLVKPTPVNVPISQKFTDLFEKMVPVSVQQSLAVFSQRKADLVNRSIAQMREATTLANGVLASLNLPAAIEDVSGDTVPQSILTKSTAVVEQGGIQTVDQLIKELPELLQRNREILEESLRLLDEEEATDNDLRAKFKDRWQRTPSNDLYKPLRAEGAKFRAVLDKAVQADGQVKERYQSHRDTIALLCKPEPELNAAIPSANPAKTMQGSEVVNVLKSLLSNLDEIKKEREGLENDLKSVNFDMTSKFLTALAQDGVINEEALSVTELDRIYGGLTTKVQESLKKQEGLLKNIQVSHQEFSKMKQSNSEASLREEVLKNLATAYDNFVELVANLKEGTKFYNELTEILVRFQNKCSDIVFARKTERDELLKDLQQSIAREPSAPSIPPPAYQSSPAGGHATAPTPAPRTMPPAKPQPPARPPPPVLPANRVPPAAAATAPAGVGTASAAPPQTPGSAPPPQAQGPPYPTYPGYPGYCQMPMPMGYNPYTYGQYNMPYPPVYHQSPGQAPYPGPQQPTYPFPQPPQQSYYPQQ

binding [4]: binds
B2: Alix (endogenous, human), Q8WUM4 1-868 (protein)
chain: MATFISVQLKKTSEVDLAKPLVKFIQQTYPSGGEEQAQYCRAAEELSKLRRAAVGRPLDKHEGALETLLRYYDQICSIEPKFPFSENQICLTFTWKDAFDKGSLFGGSVKLALASLGYEKSCVLFNCAALASQIAAEQNLDNDEGLKIAAKHYQFASGAFLHIKETVLSALSREPTVDISPDTVGTLSLIMLAQAQEVFFLKATRDKMKDAIIAKLANQAADYFGDAFKQCQYKDTLPKEVFPVLAAKHCIMQANAEYHQSILAKQQKKFGEEIARLQHAAELIKTVASRYDEYVNVKDFSDKINRALAAAKKDNDFIYHDRVPDLKDLDPIGKATLVKSTPVNVPISQKFTDLFEKMVPVSVQQSLAAYNQRKADLVNRSIAQMREATTLANGVLASLNLPAAIEDVSGDTVPQSILTKSRSVIEQGGIQTVDQLIKELPELLQRNREILDESLRLLDEEEATDNDLRAKFKERWQRTPSNELYKPLRAEGTNFRTVLDKAVQADGQVKECYQSHRDTIVLLCKPEPELNAAIPSANPAKTMQGSEVVNVLKSLLSNLDEVKKEREGLENDLKSVNFDMTSKFLTALAQDGVINEEALSVTELDRVYGGLTTKVQESLKKQEGLLKNIQVSHQEFSKMKQSNNEANLREEVLKNLATAYDNFVELVANLKEGTKFYNELTEILVRFQNKCSDIVFARKTERDELLKDLQQSIAREPSAPSIPTPAYQSSPAGGHAPTPPTPAPRTMPPTKPQPPARPPPPVLPANRAPSATAPSPVGAGTAAPAPSQTPGSAPPPQAQGPPYPTYPGYPGYCQMPMPMGYNPYAYGQYNMPYPPVYHQSPGQAPYPGPQQPSYPFPQPPQQSYYPQQ
